This is an account of results in publication PMC6274353, “The Blood-Brain Barrier Permeability of Lignans and Malabaricones from the Seeds of Myristica fragrans in the MDCK-pHaMDR Cell Monolayer Model” (Molecules, 2016).

The data set in a line: bidirectional transport across the MDCK-pHaMDR cell monolayer (in vitro BBB model). As to conditions: dog, MDCK-MDR1, pH 7.35. On the procedure: The MDCK-pHaMDR cells were seeded at a density of about 8 × 10^4 cells/mL on the 12-well Transwell® plates. After an eight-day culture, the cells reached confluence and differentiation for the transport study.
On the 8th day, the monolayers were washed twice and shaken at 55 rpm for 30 min with HBSS at 37 °C. Then, the TEER was measured with an epithelial volt-ohm meter (EVOM; World Precision Instrument) to examine the monolayer's integrity. Only those with the TEER values above 1000 Ω·cm^2 were qualified for the transport.
The bidirectional transport assay was initiated by adding a test compound to either the apical (0.5 mL for apical to basolateral transport, A→B) or the basolateral (1.5 mL for basolateral to apical transport, B→A) side. After shaking at 55 rpm and 37 °C for a certain time, samples (A→B: 400 µL from the apical side and 1300 µL from the basolateral side; B→A: 450 µL from the apical side and 450 µL from the basolateral side) were collected, immediately frozen, lyophilized and preserved below –20 °C before analysis.
Papp of each compound was calculated based on the following equation: (1) Papp = (ΔQ/Δt)/(AC0) (cm/s) where ΔQ/Δt is the appearance rate of the test compound at the receiver side (µmol/s), C0 is the initial concentration of the test compound at the donor side (µM), and A is the membrane surface area (cm^2). […]

As to `CC(C)NCC(O)COc1ccc(CC(N)=O)cc1` (stereo not shown) [atenolol, reference compound], the Papp – broadly, a coefficient for how fast a substance crosses the barrier – was 0.472 ± 0.017 ×10⁻⁶ cm/s.
